Measurements: paper PMC6007958, “Identification, characterization and application of a new peptide against anterior gradient homolog 2 (AGR2)” (Oncotarget, 2018)
Results are given in words; binding and its absence hold for the method and conditions named. Binding calls can cover weak binding; strength is not graded here.

Chains of the proteins cited; added tags and fusions are not shown. Lines headed by an entry give the natural chain unless they say otherwise; changes in a name come on top.
UniProt O95994: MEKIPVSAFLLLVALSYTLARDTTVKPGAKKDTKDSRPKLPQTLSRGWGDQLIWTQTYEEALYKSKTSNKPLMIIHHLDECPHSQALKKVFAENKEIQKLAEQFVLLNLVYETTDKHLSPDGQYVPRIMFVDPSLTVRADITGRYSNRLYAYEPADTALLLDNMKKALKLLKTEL

Columns and labels:
H10 peptide (biotin-…) [1] = target: T1, H10 peptide (biotin-…); assay: ELISA; biotinylated H10 (1 μg) on streptavidin coated plates; recombinant AGR2 4-3,000 ng/mL (wash buffer, PBS or DMEM with 10% FBS), 37°C 2 h; detected with anti-AGR2 antibody (Epitomics) and HRP secondary; both purified
T1 sequence (peptide, biotin (N-Terminal)): GGGSGMKMQVRIYLV

H10 peptide (biotin-…) [2] = target: T1, H10 peptide (biotin-…); assay: pull-down; H10-biotin or scrambled-biotin peptide on streptavidin magnetic beads; recombinant proteins (1-3 mg/mL) overnight at 4°C; TBS 0.1% Tween washes; SDS-PAGE/Western blot; both purified
H10 peptide (biotin-…) [3] = target: T1, H10 peptide (biotin-…); assay: SPR; competition: AGR2 (500 nM) pre-incubated with free H10 or control peptide (500 nM), injected over immobilised H10; both purified
H10 peptide (biotin-…) [4] = target: T1, H10 peptide (biotin-…); assay: cross-linking; AGR2 pre-incubated with H10 in 20 mM HEPES pH 7.5 at 25°C, DSSO cross-linking, trypsin digest, LC-MS; loss of peptide spectrum matches; both purified

| binding (H10 peptide (biotin-…) [1]) | Substance | other results |
| --- | --- | --- |
| binds | Δ27 AGR2 T140A (from UniProt O95994) | – |
| binds | Δ27 AGR2 Q103R (from UniProt O95994) | – |
| binds | Δ27 AGR2 (recombinant anterior gradient protein 2 without the ER leader sequence) (from UniProt O95994) | binding (H10 peptide (biotin-…) [2]): binds; binding (H10 peptide (biotin-…) [3]): binds; binding (H10 peptide (biotin-…) [4]): binds |
| binds | Δ41-AGR2 (human) (domain or fragment) | – |
| binds | Δ27 AGR2 A155T (from UniProt O95994) | – |
| binds | Δ27 AGR2 S134A (from UniProt O95994) | – |
| binds | Δ27 AGR2 E60Q (from UniProt O95994) | – |
| binds | Δ27 AGR2 R148H (from UniProt O95994) | – |
| binds | Δ27 AGR2 E96K (from UniProt O95994) | – |
